Our source for the binding values is patent US20190262327A1, “COMBINATION OF A BACE INHIBITOR AND AN ANTIBODY OR ANTIGEN-BINDING FRAGMENT FOR THE TREATMENT OF A DISORDER ASSOCIATED WITH THE ACCUMULATION OF AMYLOID BETA” (ASTRAZENECA AB, priority 2016, published 2019).

Results are given in words; binding and its absence hold for the method and conditions named. Binding calls can cover weak binding; strength is not graded here.

In test [1] the target is native Amyloid beta in plaques on Tg2576 mouse brain sections. Briefly: in vitro immunohistochemistry on Tg2576 mouse brain sections.
For test [2] the target is unchanged. Briefly: in vitro immunohistochemistry on brain sections; diffuse and CAA plaques.

B1: Abet0380-GL (germlined) IgG1-TM (antibody, V domains shown)
VH: EVQLLESGGGLVQPGGSLRLSCAASMGNFNYQTMWWVRQAPGKGLEWVSVIGKTNENIAYADSVKGRFTISRDNSKNTLYLQMNSLRAEDTAVYYCAREWMDHSRPYYYYGMDVWGQGTLVTVSS
VL: SYELTQPPSVSVSPGQTASITCSGHNLEDKFASWYQQKPGQSPVLVIYRDDKRPSGIPERFSASNSGHTATLTISGTQAMDEADYYCSSQDTVTRVFGGGTKLTVL
For the molecule B1, the binding entry in test [1] and in test [2] was “binds” throughout.
